The record followed here is paper PMC10163288.

Broadly, the apparent Kd is a dissociation constant that holds for the conditions of the assay.

B1: il2ra_site1_2b5i_normal_mot_HHH_b1_01419_af2_000000080_0001_42_53_H_._HHH_b1_01280_af2_0001_0000300026_0000001_0_af2pred_dldesign_0_af2pred (protein)
chain: SSSSSDDEIYDLFLEALRLYQAGKKEEAIKLLEKALELAKKAKDEKAVKELEYFLERVKKSSSSS
B2: il2ra_site1_3nfp_normal_mot_HHH_b2_02053_000000240_0001_1_20_H_._8b3018496bece20695a4731cc719293d_0001_1_0001_0000100004_0000001_0_af2pred_0001_af2pred_1 (protein)
chain: GPEAEKRIVRLALELNSPRLLKKILENLERHLGDPREAERVLSELIAEVLKVPPEEAKEIVEEVK
B3: il2ra_site1_3nfp_normal_mot_ems_3hC_775_af2_000000149_0001_42_60_H_._HEEHE_2118_af2_0001_0000100003_0000001_0 (protein)
chain: DLEEEFKKAVERLAEIAGVPHVEVEVSNGEVEVTFEGDDQQARHASKLVRRAAEAFGIKVEVRVE
B4: il2ra_site2_3nfp_sap_20_mot_ce0e691d864d74cc0dee145e42b7b696_0001_1_af2_000000051_0001_34_49_H_._HHH_b1_03816_af2_0001_0000500031_0000001_0_0001 (protein)
chain: SSSSSDEEKLEEARELYEEGNPEEARKILLHLVSEAEEKGDRELLFRIMALANEVAAALISSSSS
B5: il2ra_site2_2erj_normal_mot_HHH_b1_01239_000000175_0001_43_57_H_._HHH_b1_04971_af2_0001_0000700017_0000001_0 (protein)
chain: SSSSSDSAEEALELAERAFEKGDRAEVRLILRFLELALEDTNDPRVEEAYERVEELLKELSSSSS
B6: il2ra_site2_3nfp_normal_mot_HHH_b1_06381_af2_000000237_0001_1_19_H_._HHH_b1_03565_af2_0001_0000200009_0000001_0 (protein)
chain: SSSSDREELAEFNLEYLRARGDEELFEELRELLERLRKHGDPELEEAIEELLHEIAEKAAGSSSS
B7: il2ra_site2_2erj_sap_17_mot_b5c6f2848cbf55e1ecbd417c35b42da7_0001_af2_000000155_0001_1_14_H_._HHH_b1_00942_af2_0001_0000800086_0000001_0_0001 (protein)
chain: SSSLRESFKLAVEALRELSRLFEEGDPEEAERLVEEVARQLEENGSPTAVRMLEEAFRALRSSSS
B8: il2ra_site2_2erj_sap_20_mot_HHH_b1_02757_000000121_0001_41_57_H_._HHH_b2_05554_0001_0000200009_0000001_0_0001 (protein)
chain: SSSSSHEEEVERLLEEAKEAYERGDLHLVYRLMVEALRVASEHQDDELLREIAEFVEELSSSSSS
B9: il2ra_site1_2b5i_normal_mot_HHH_b2_04353_af2_000000128_0001_1_17_H_._HHH_b1_07800_af2_0001_0000800040_0000001_0_af2pred_0001_af2pred (protein)
chain: SSSSSEADHEVTELYRRASELFRNGNPEEARELIEEALEIAERNNDETAVKDLERFLELLRSSSS
B10: il2ra_site1_3nfp_normal_mot_HHH_b1_01231_af2_000000170_0001_1_16_H_._HHH_b2_03769_0001_0000100007_0000001_0 (protein)
chain: SSSSDEELRELLQEILRLAFEGNTEEAKELLEELRELAEERNDPSVQKFVEVLERAIRLHESSSS
B11: il2ra_site2_3nfp_sap_15_mot_HHH_b2_04451_000000238_0001_21_37_H_._HHH_b2_00465_af2_0001_0000200003_0000001_0_0001 (protein)
chain: SSSSDVEERIKELLKQIEELEEEGDRNEVAQLLLEVLRLAVEANDREAARLVLEAFKELQSSSSS
B12: il2ra_site1_2b5i_sap_8_mot_HHH_b2_04131_000000150_0001_1_16_H_._HHH_b2_06569_af2_0001_0000100002_0000001_0_0001_af2pred_dldesign_0_af2pred (protein)
chain: SSSSSSAEEFVNEAIEKAKELKAAGRPDEARRLLKLALKRARKANDADLVARVEALLAELSSSSS
B13: il2ra_site2_2erj_normal_mot_HHH_b2_06005_000000006_0001_1_15_H_._HHH_b2_02812_0001_0000400022_0000001_0 (protein)
chain: SSSSDESEEEIERLIREAEEALEEGDPELAASLIIEAAHIAARNGDDELLEELRELFERVYSSSS
B14: il2ra_site1_1z92_normal_mot_HHH_b1_04615_af2_000000156_0001_38_52_H_._HHH_eva_0441_0001_0000700042_0000001_0 (protein)
chain: SSSSSSSSTEEWLEELAELAFRLGSRRNVEFLLRQARIEGDEELAEHIEELLRRLSSSSSSSSSS
B15: il2ra_site1_3nfp_sap_15_mot_HHH_b1_01231_af2_000000170_0001_1_16_H_._HHH_b1_02696_0001_0000100002_0000001_0_0001 (protein)
chain: SSSSSNEAARRVTELLRRALRIEDDEERERLLEEAQRLAEEFNDKIAKWLVEQVERLLEESSSSS
B16: il2ra_site1_2b5i_normal_mot_HHH_b2_04910_000000118_0001_1_19_H_._HHH_b1_03439_af2_0001_0000100003_0000001_0_af2pred_0001_af2pred (protein)
chain: SSSSSLTEQAVELLREANELDQNGNPEEAEEVLKEAKEFAERGGSKALLRMIEAALRLLKGSSSS
B17: il2ra_site1_3nfp_normal_mot_1cd86ef9f1587ae5d14d35bbbd8e7f1d_0001_1_000000087_0001_34_49_H_._HHH_b2_08068_0001_0000600032_0000001_0_af2pred_0001_af2pred_swapped (protein)
chain: SSSSDEEAEELLKEAQELVKELLERGDPNEASKVVEEVLRRLAELGNPEAAEELLEFAHKLSSSS
B18: il2ra_site2_2erj_sap_25_mot_HHH_b2_05804_000000098_0001_44_58_H_._HHH_b2_04034_0001_0000100007_0000001_0_0001 (protein)
chain: SSSSDERLRQLYELANLLMHLAAKGDEEEFEKVLKEAKELAEELDSENARELLEDLERLLSSSSS
B19: il2ra_site1_3nfp_sap_13_mot_0eddeacbb14b769e73e254714f31e2f9_0001_af2_000000052_0001_37_51_H_._HHH_b1_08594_0001_0000400033_0000001_0_0001 (protein)
chain: SSSSSDEEVERRVEELLEEARHVDPREAVELIQEAYRLAAEANDQELAEEIYRFMREMVQSSSSS
B20: il2ra_site2_2erj_sap_31_mot_HHH_b1_04859_000000124_0001_24_41_H_._ems_p1-16H-GBL-16H-GABBL-16H_0045_0001_0001_0002_0001_0000100002_0000001_0_0001 (protein)
chain: SSSSDDLHRLYELANELMQAIAEGDEEKARELIEELEELIEKSDSETAREILEWLERALESSSSS
B21: il2ra_site2_2erj_sap_18_mot_3b06bd03f1c6bceadc68eab912867b79_0001_000000296_0001_36_50_H_._HHH_b1_00587_0001_0000100003_0000001_0_0001_af2pred_0001_af2pred_1 (protein)
chain: SSSDREEVAEEVVERLVKELGLDEEAQRQLELSAELAIEAGFSPEQIEIFLKLVAEQLLKQLSSS
B22: il2ra_site2_3nfp_normal_mot_HHH_b1_05627_af2_000000038_0001_43_56_H_._HHH_b2_05144_0001_0000100001_0000001_0 (protein)
chain: SSSSKAEEYLRVALLLLRELLEEGDEEAARRVAEAALALAENLNDEEVEEEVRKVLEELESSSSS
B23: il2ra_site2_3nfp_normal_mot_HHH_b1_00660_af2_000000090_0001_40_57_H_._HHH_b1_00119_0001_0000400009_0000001_1_af2pred_0001_af2pred (protein)
chain: SSSSSDEEEEEIRELIEEAKQIEDPEEAKKVLRRASALAAELGNYELFAELVNLLERLGSSSSSS
B24: il2ra_site2_2erj_normal_mot_HHH_b2_00484_af2_000000139_0001_42_55_H_._HHH_b2_04486_0001_0000400022_0000001_0 (protein)
chain: SSSSDEERERLFEEIARLSAELAEKGDPRLFEELEELLELAEELGNEIAARYAEHALEHFKSSSS

The other results are listed elsewhere or left out.

For the assay, the target named is il2ra, P01589. The experiment in a line: yeast display titration.
Take B1: the “apparent Kd” value is “inactive: no binding seen”.
Under B2 stands “inactive: no binding seen”; under B3, “inactive: no binding seen”.
With B4 the entry was “inactive: no binding seen”; with B5, “inactive: no binding seen”.
Consider B6, for which the “apparent Kd” value is “inactive: no binding seen”.
With B7 the figure was inactive: > 420 nM; with B8, “inactive: no binding seen”.
With B9 the entry was “inactive: no binding seen”; with B10, “inactive: no binding seen”.
Under B11 stands “inactive: no binding seen”.
For the molecule B12, the “apparent Kd” value is “inactive: no binding seen”.
Regarding B13, the “apparent Kd” value was “inactive: no binding seen”.
Under B14 stands “inactive: no binding seen”; under B15, “inactive: no binding seen”.
Under B16 stands “inactive: no binding seen”; under B17, “inactive: no binding seen”; under B18, “inactive: no binding seen”.
With B19 the entry was “inactive: no binding seen”.
As to B20, the “apparent Kd” value was “inactive: no binding seen”.
Under B21 stands “inactive: no binding seen”.
With B22 the entry was “inactive: no binding seen”; with B23, “inactive: no binding seen”.
With B24 the entry was “inactive: no binding seen”.
